Measured values from PMC9977947, “Targeting ATAD3A-PINK1-mitophagy axis overcomes chemoimmunotherapy resistance by redirecting PD-L1 to mitochondria” (Cell Research, 2023).
These are yes or no findings as the source states them, for the method shown. For part of these data: Binding seen in cells or lysates may run through a third protein. Some results given as binding are weak or reduced against the parent protein; the word gives no strength.

Protein sequences, listed by entry. Tags and fused reporters are not part of them. Lines headed by an entry give the natural chain unless they say otherwise; changes in a name come on top. Residues count along the entry.
UniProt Q9NZQ7: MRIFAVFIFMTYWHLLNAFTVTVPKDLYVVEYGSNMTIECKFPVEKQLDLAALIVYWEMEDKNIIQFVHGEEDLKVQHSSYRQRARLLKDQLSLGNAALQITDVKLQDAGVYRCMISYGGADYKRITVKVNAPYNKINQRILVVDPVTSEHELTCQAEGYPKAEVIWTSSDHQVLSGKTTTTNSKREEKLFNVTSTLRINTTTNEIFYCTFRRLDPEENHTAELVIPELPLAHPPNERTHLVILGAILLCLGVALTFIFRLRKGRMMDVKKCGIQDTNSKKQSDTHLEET
Biotin-labeled PD-L1 ICD peptide (amino acids 262-290): residues 262-290 of Q9NZQ7
UniProt Q9BXM7, residues 78-581: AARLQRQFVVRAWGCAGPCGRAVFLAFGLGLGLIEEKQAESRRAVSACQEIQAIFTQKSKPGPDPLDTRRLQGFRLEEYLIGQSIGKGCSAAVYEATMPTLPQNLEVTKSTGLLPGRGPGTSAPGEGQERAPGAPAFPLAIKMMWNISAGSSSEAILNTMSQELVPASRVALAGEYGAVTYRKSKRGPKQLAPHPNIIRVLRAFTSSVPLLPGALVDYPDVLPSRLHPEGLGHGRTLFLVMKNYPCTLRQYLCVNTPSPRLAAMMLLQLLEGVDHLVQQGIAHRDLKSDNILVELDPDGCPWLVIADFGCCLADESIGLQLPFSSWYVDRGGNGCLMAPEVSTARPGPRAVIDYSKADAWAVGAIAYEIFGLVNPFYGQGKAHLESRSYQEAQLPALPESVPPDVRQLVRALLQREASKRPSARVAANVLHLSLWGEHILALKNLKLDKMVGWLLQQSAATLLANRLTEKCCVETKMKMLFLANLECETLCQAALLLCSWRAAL

Columns and labels:
[1] = target: Biotin-labeled PD-L1 ICD peptide (amino acids 262-290) (UniProt Q9NZQ7); assay: pull-down; purified Flag-PINK1 (full length or truncated) incubated with biotin-labeled PD-L1 ICD peptide in 25 mM Tris-HCl pH 7.4, 150 mM NaCl, 1 mM EDTA, 0.05% NP-40, 10% glycerol for 12 h at 4 °C; streptavidin sepharose beads or anti-Flag M2 affinity gel 1.5 h; five washes; immunoblot; both purified
[2] = target: PTEN-induced kinase 1 (PINK1), in HEK293T lysate (human (endogenous in HEK293T)) (UniProt Q9BXM7); assay: co-IP; HEK293T cells lysed in IP Lysis buffer; lysates incubated with antibodies against PINK1 or PD-L1 overnight at 4 °C, Protein G Sepharose beads 3 h at 4 °C, six washes, immunoblot; IgG as control

binding [1]	binding [2]	Substance
binds	–	Flag-labeled full-length PINK1 (amino acids 1-581) (from UniProt Q9BXM7 78-581)
–	no binding	PD-L1 extracellular domain (ECD) (from UniProt Q9NZQ7 19-238) (domain or fragment)
–	binds	PD-L1, full length (FL) (from UniProt Q9NZQ7 19-290)
